± gives the uncertainty stated by the source. This is one part of the list.
Columns and labels:
[1] = tested on: Acinetobacter baumannii Mahidol; assay: percent growth relative to DMSO-treated control; higher = less growth inhibition; settings: 10 µM; 18 h
[2] = tested on: Acinetobacter baumannii Naval-81; assay: as above; settings: 10 µM; 18 h

SMILES	percent growth [1]	percent growth [2]
Cc1[nH]c2cc(F)cc(F)c2c(=O)c1-c1ccc(Oc2ccc(OC(F)(F)F)cc2)cc1	92.6 ± 5.3%	96.1 ± 26%
CCc1c(C)nc(-n2nc(C)cc2NC(=O)c2ccccc2SC)[nH]c1=O	104 ± 7%	84.2 ± 18%
CCCCN(CCCC)c1c(C#N)cc(S(=O)(=O)Nc2ccccc2)cc1C#N	100 ± 10%	97.4 ± 9.9%
Cc1ccc(-c2cc(C(=O)Nc3cccnc3)c3cc(Br)ccc3n2)cc1	92.5 ± 6.1%	97.6 ± 22%
O=C(NC1CCN(c2ccnc3ccccc23)C1)c1cccc(C(F)(F)F)c1 (centres undefined)	94.5 ± 8.6%	79.3 ± 12%
CC(C)(C(=O)Nc1ccc(F)cc1)n1cc(-c2ccccc2F)cn1	90.6 ± 10%	97.8 ± 16%
c1ccc(Oc2ccc(-c3cc(N4CCOCC4)[nH]n3)cc2)cc1	90.1 ± 9.1%	86.8 ± 8.8%
c1ccc(-c2nc(NC3CCCCC3)cc(C3CC3)n2)nc1	104 ± 12%	71.6 ± 4.3%
O=C(c1ccco1)N(CCCn1ccnc1)c1nc2c(Cl)cccc2s1	90.4 ± 18%	76 ± 13%
CCn1cnc2c(Nc3cc(F)cc(F)c3)nc(C#N)nc21	88 ± 12%	98.9 ± 16%
Cc1cc(NCC(C)C)c2n[nH]c(-c3ccccc3)c2n1	89.9 ± 5%	102 ± 5.1%
CNc1snc(C)c1C(=O)NCCOc1ccc(OC)cc1	60.2 ± 39%	97.8 ± 9.5%
CC(C)n1nc(-c2cc3c(Cl)cccc3[nH]2)c2c(N)ncnc21	92.3 ± 15%	98.8 ± 6.8%
O=C1COCc2ccc(Br)cc2N1Cc1ccc(C(F)(F)F)cc1	101 ± 15%	98 ± 10%
NC(=O)c1cc(Br)ccc1OCCOc1ccccc1	86.7 ± 9.4%	90.6 ± 4.2%
c1ccc(Oc2ccc(-c3cc(N4CCNCC4)[nH]n3)cc2)cc1	108 ± 9.1%	92.7 ± 6.5%
CNc1nnc(Sc2cnn(-c3ccccc3)c(=O)c2Cl)s1	100 ± 26%	59.4 ± 55%
OCCc1ccc(Nc2nccc(-c3nnc4ccccn34)n2)cc1	101 ± 6.3%	89.3 ± 10%
CO[C@@H](C(=O)N1Cc2[nH]nc(NC(=O)c3ccc(N4CCN(C)CC4)cc3)c2C1)c1ccccc1	64.1 ± 34%	80.7 ± 11%
CCc1nc2ccc(Cl)cn2c1C(=O)NCc1ccc(N2CCC(c3ccc(OC(F)(F)F)cc3)CC2)cc1	56.3 ± 33%	80.7 ± 15%
O=C(NC1CC1)c1ccc(CSCc2ccccc2Cl)o1	85.2 ± 9.2%	102 ± 7.3%
C[C@]1(O)C[C@@H](c2nc(-c3ccc4ccc(-c5ccccc5)nc4c3)c3c(N)nccn32)C1	83.6 ± 46%	84.9 ± 15%
CCCNC(=O)N1CCC2(CC1)CC(=O)c1cc(C)ccc1O2	94 ± 10%	98.1 ± 7.5%

SMILES	percent growth [1]	percent growth [2]
O=C(Nc1ccc(N2CCNCC2)cc1)c1ccn2ncc(-c3cccc(Cl)c3)c2n1	98.1 ± 3.2%	116 ± 28%
COc1cncc(-c2cncc(N3CCN(c4ccncc4)CC3)n2)c1	87.3 ± 4.8%	84.3 ± 5.1%
CCCCOC(=O)Nc1cc2nc(C3CCCCC3)[nH]c2cc1N1CCCC1	64.8 ± 36%	103 ± 7.7%
CN1CCCN(C(c2ccccc2)c2ccc(Cl)cc2)CC1 (centres undefined)	96.2 ± 6.7%	102 ± 30%
COc1ccc(S(=O)(=O)Nc2ccc(CN3CCN(C(=O)c4cccc(C#N)c4)CC3)cc2)cc1	92.9 ± 8.2%	110 ± 58%
c1ccc2c(c1)CN(CC1CC1)CC1(CCN(Cc3c[nH]c4cnccc34)CC1)O2	99.3 ± 5.3%	98.2 ± 21%
Cc1nn(C(=O)Nc2cccc(C(F)(F)F)c2)c(C)c1Sc1ncccn1	97.5 ± 11%	73.7 ± 24%
Cc1ccccc1CN1CCC(O)(c2ccc(Cl)c(C(F)(F)F)c2)CC1	84 ± 19%	92.4 ± 3%
Cc1cc(C)nc(-n2nc(C)cc2Nc2ccccc2)n1	97.2 ± 6.8%	102 ± 18%
CNC(=O)c1nn(C)c2c1C(C)(C)Cc1cnc(Nc3ccc(N4CCN(C)CC4)cc3)nc1-2	85.5 ± 52%	93.7 ± 7.3%
c1cc(C2=NCCN2)cc(-c2cc(-c3ccc(C4=NCCN4)cc3)no2)c1	97.3 ± 8.3%	93.4 ± 1.3%
C[C@H](C(N)=O)N1CCCC[C@@H]1c1ccc(OCc2cccc(F)c2)cc1	98.4 ± 12%	87.9 ± 29%
O=C(Nc1ccccc1)c1ccc(-c2cc3ccncc3cc2OC2CCNCC2)s1	101 ± 9%	90.6 ± 13%
CCCn1c(CNc2ccccc2O)nc2ccccc21	89.3 ± 26%	77.9 ± 15%
NS(=O)(=O)c1cncc(-c2ccc3nccc(-c4cn[nH]c4)c3n2)c1	99.9 ± 12%	94.1 ± 8.3%
COC(=O)c1ccc(F)cc1NS(=O)(=O)c1cccc(-c2cnn(Cc3ccccc3)c2)c1	78.5 ± 16%	88.2 ± 1.9%
c1cncc(NCc2ccc(-c3cc4ccncc4cc3OC3CCNCC3)s2)c1	93 ± 6.8%	107 ± 25%
Cc1cc(C(=O)Nc2ccc(-c3ccccc3)cc2)no1	68.6 ± 30%	95.3 ± 18%
c1coc(CNc2nc(N3CCCCC3)nc3ccccc23)c1	108 ± 11%	90.5 ± 9%
CC1=Nc2ccc(Cl)cc2C(c2ccccc2)N1CCNC(=O)CN(C)C (centres undefined)	90.6 ± 5.9%	95.8 ± 6.3%
COC(=O)c1cccc2oc(-c3cccc(OC)c3NC(=O)c3cc(-c4ccccc4)on3)nc12	93.4 ± 6%	94.7 ± 17%
CS(=O)(=O)N1CCC(Cn2nc(Cc3cccc4ccccc34)c3c(N)ncnc32)CC1	92.8 ± 8.1%	89.5 ± 14%
O=C1Nc2ccc(Br)cc2C12NCCc1c2[nH]c2ccccc12 (centres undefined)	84.9 ± 14%	130 ± 52%

Gathered by group: the compounds so far with bromine (4)
SMILES	percent growth [1]	percent growth [2]
Cc1ccc(-c2cc(C(=O)Nc3cccnc3)c3cc(Br)ccc3n2)cc1	92.5 ± 6.1%	97.6 ± 22%
O=C1COCc2ccc(Br)cc2N1Cc1ccc(C(F)(F)F)cc1	101 ± 15%	98 ± 10%
NC(=O)c1cc(Br)ccc1OCCOc1ccccc1	86.7 ± 9.4%	90.6 ± 4.2%
O=C1Nc2ccc(Br)cc2C12NCCc1c2[nH]c2ccccc12 (centres undefined)	84.9 ± 14%	130 ± 52%

The listing continues:

SMILES	percent growth [1]	percent growth [2]
CNC(=O)C1Cc2c([nH]c3cc(Cl)ccc23)C2(CCN(CCc3ccccc3)CC2)N1 (centres undefined)	93.8 ± 9.1%	91.6 ± 10%
CC(C)(C)n1nc(Cc2ccc(F)c(Cl)c2)c2c(N)ncnc21	95.4 ± 9.9%	96.5 ± 10%
CC(C)(C)C1CCC(CC2=C(O)C(=O)c3ccccc3C2=O)CC1 (centres undefined)	99.4 ± 30%	66 ± 18%
N=C(N)c1ccc(-c2cc(-c3ccccc3)on2)cc1	86.9 ± 14%	87.2 ± 4.8%
O=C(NCCc1ccn(-c2ccccc2)n1)C1CCCCC1	98.2 ± 9.9%	82.4 ± 10%
CC(=O)NCC1CN(c2ccc(-c3ccc(CO)cc3)c(F)c2)C(=O)O1 (centres undefined)	88.1 ± 6.6%	94.9 ± 12%
COc1ccc(-c2cnc3cnc(-c4cccc(OC(C)C)c4)cn23)cc1	97.5 ± 22%	85.2 ± 13%
O=C(NCc1ccoc1)N1CCN(Cc2ccc3c(c2)OCO3)CC1	89 ± 39%	81.6 ± 5.9%
O=C(c1[nH]nc2c1CCCC2)N1CCN(Cc2ccc3c(c2)OCO3)CC1	83.9 ± 40%	84.5 ± 10%
COc1ccc(Cn2cnc3c(-c4ccco4)nc(Cl)nc32)cc1	104 ± 22%	109 ± 11%
Nc1ncc(-c2cn[nH]c2)cc1-c1nc2cc(Cl)cnc2[nH]1	86.8 ± 7.2%	96.5 ± 7.1%
O=C(Nc1ccc(F)c(-c2nc3cc(-c4ccccc4)cnc3[nH]2)c1)N1CCCC1	92.2 ± 2.6%	93.4 ± 16%
Cc1cc(O)nc(-n2nc(C)cc2C)n1	96.7 ± 1.8%	84.4 ± 9.9%
CCN(CC)S(=O)(=O)c1ccc(C(=O)Nc2cc(C)nn2-c2nc(C)c(C)c(=O)[nH]2)cc1	69.3 ± 41%	73.4 ± 24%
Cc1cc(C)cc(COc2ccc3c(C)c(CCC(=O)O)c(=O)oc3c2C)c1	92 ± 5.3%	100 ± 13%
Nc1ncnc2c1ncn2C[C@@H](O)[C@@H](O)C(=O)O	76.7 ± 38%	90.2 ± 19%
COc1cccn2c(C(=O)N3CCCCC3)c(C(F)(F)F)nc12	92.3 ± 12%	89.1 ± 9.9%
COc1cc(-c2cc(-c3ccc(S(C)(=O)=O)cc3)cnc2N)ccc1O	91.4 ± 8.7%	83.5 ± 13%
O=C(Nc1c(O)cccc1-c1nc2c(C(=O)O)cccc2o1)c1cc(-c2ccccc2)on1	101 ± 9.8%	98 ± 12%
CC1=Nc2ccc(Cl)cc2C(O)(c2ccc(C)cc2)N1CCN1CCCCC1 (centres undefined)	93.4 ± 7.7%	94.8 ± 12%
Cc1ccc(NC(=O)CC2COc3ccccc3O2)cc1Cl (centres undefined)	102 ± 9.8%	84 ± 8.7%
Cc1cc(C(=O)Nc2cnn(Cc3ccc(Cl)cc3Cl)c2)no1	117 ± 25%	70.1 ± 27%
NC(CC(=O)c1ccc(Cl)cc1Cl)C(Cl)(Cl)Cl (centres undefined)	93.5 ± 14%	84.8 ± 21%

SMILES	percent growth [1]	percent growth [2]
COc1ccccc1CNC(=O)c1cc(C2CC2)nc2c1cnn2C(C)C	102 ± 9.1%	107 ± 49%
O=C(NCc1ccco1)N1CCN(Cc2ccc(Cl)s2)CC1	107 ± 19%	88.3 ± 17%
N=C(N)c1ccc(OCCCCCOc2ccc(C(=N)N)cc2)cc1	60.2 ± 52%	66.9 ± 32%
Cc1ccc2[nH]c3c(NCCN(C)C)ncnc3c2c1	131 ± 29%	75.2 ± 65%
Cc1cc(OCC(=O)Nc2ccc(C(C)C)cc2)n(C)c(=O)c1C#N	104 ± 21%	94 ± 14%
CNC1C(OC2C(OC3C(O)C(O)C(NC(=N)N)C(O)C3NC(=N)N)OC(C)C2(O)C=O)OC(CO)C(O)C1O (centres undefined)	136 ± 40%	93.3 ± 8.9%
OCc1ccc(-c2cncc(Nc3cccc(Cl)c3)c2)cc1	96.3 ± 8.6%	82.1 ± 9.6%
Cn1c(=O)c2c(S(C)(=O)=O)snc2n(C)c1=O	77.3 ± 21%	94.4 ± 10%
COc1ccc(-c2cnc3ccc(NCc4ccc(S(N)(=O)=O)cc4)nn23)cn1	92.2 ± 5.4%	84.3 ± 18%
COCC(C)NC(=O)CSc1ncnc2sc(-c3ccccc3)cc12 (centres undefined)	69 ± 21%	128 ± 61%
FC(F)(F)c1cnc(Sc2nnc(-c3ccncc3)o2)c(Cl)c1	86.4 ± 3.3%	96.8 ± 2.4%
COc1cc(Br)cc2cc(C(=O)Nc3cccc(C(F)(F)F)c3)c(=O)oc12	89.8 ± 12%	98.2 ± 0.54%
COc1cccc(-c2nc3c(N4CCCC4)cccc3n2CC2CCCN2)n1 (centres undefined)	89 ± 9.1%	89.7 ± 17%
O=C(Nc1cccnc1)c1c(O)c2cccc3c2n(c1=O)CC3	77.8 ± 34%	112 ± 53%
COc1ccc(Cl)cc1NC(=O)CN(C)C(=O)c1cnn(-c2ccccc2)n1	46.1 ± 43%	104 ± 35%
N#Cc1nc(-c2ccccc2)oc1S(=O)(=O)c1ccc(Cl)cc1	109 ± 4.8%	83.3 ± 4%
c1ccc(Oc2ccc(-c3cc(C4CCOCC4)[nH]n3)cc2)cc1	92.3 ± 15%	63.2 ± 21%
Nc1nc(N)c2c3c(sc2n1)CN(Cc1ccccc1)CC3	94.4 ± 4.2%	85 ± 9.8%
Cc1nc(-c2cccc(NCc3ccccc3)c2)[nH]c1C	100 ± 4.3%	69.3 ± 53%
CCOC(=O)c1cc(-c2csc(Nc3c(C)cc(C)cc3C)n2)on1	111 ± 9.8%	101 ± 29%
N#Cc1ccc(-c2cnc(N)c(-c3ccc(C(N)=O)cc3)n2)cc1	87.3 ± 9.5%	85.1 ± 7.2%
Cc1ccc(S(=O)(=O)n2cc(-c3ccnc(N)c3)c3cc(Br)cnc32)cc1	92.8 ± 9.5%	83.5 ± 6.5%
COc1ccc2nc(C)cc(OCC(=O)NCc3ccccc3)c2c1	91.3 ± 29%	115 ± 28%

Some of these compounds in order of formula weight, low to high:
SMILES	percent growth [1]	percent growth [2]
Cc1nc(-c2cccc(NCc3ccccc3)c2)[nH]c1C	100 ± 4.3%	69.3 ± 53%
O=C(NCc1ccco1)N1CCN(Cc2ccc(Cl)s2)CC1	107 ± 19%	88.3 ± 17%
COc1ccc(-c2cnc3ccc(NCc4ccc(S(N)(=O)=O)cc4)nn23)cn1	92.2 ± 5.4%	84.3 ± 18%

— the supplement of paper PMC6821926, “Diaminoquinazoline MMV675968 from Pathogen Box inhibits Acinetobacter baumannii growth through targeting of dihydrofolate reductase” (Scientific Reports, 2019)
